Test results from PubChem BioAssay AID504834 (National Center for Advancing Translational Sciences (NCATS), 2011).
“And” between values parts separate entries of the source, which are not always exact repeats. Identical values can stand only once. In all, about 320,000 compounds went through this assay and about 22,000 (6.9%) were called active. Inconclusive means that the source gave no clear call. Such entries were picked first, then a sample of the others. Calls come from the whole dose curve; as a rule, active = well fitted inhibition curve with a large enough effect; inconclusive = small, poorly fitted or top-dose-only effect, or another doubt; inactive = no such curve, though single readings can be large or run the other way. Potencies beside an inconclusive call are fits to weak or partial responses and may not hold up.

Experiment: Primary qHTS for delayed death inhibitors of the malarial parasite plastid, 96 hour incubation
Conditions: P. falciparum luciferase reporter growth; series mostly up to 28.7 µM
Outline: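 Cell-based qHTS: luciferase-tagged P. falciparum in erythrocytes (2% hematocrit, 0.05% parasitemia final) incubated with compounds for 96 hours, 37 C, 5% CO2; luciferase detection reagent then added and luminescence measured.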
Potency is the fitted concentration of half-maximal effect.

SMILES | Potency
Cc1ccn(CC(=O)N2CCCC(C(=O)c3cccc4ccccc34)C2)n1 (centres undefined) | inconclusive: 18.5 µM [inhibitor, single point]
CCc1c(C)nc2ncnn2c1N1CCCC(C(=O)Nc2cc(F)ccc2C)C1 (centres undefined) | inconclusive: 18.5 µM [inhibitor, single point]
CCOc1ccccc1NC(=O)c1cnc(NS(=O)(=O)c2ccccc2)nc1 | inconclusive: 18.5 µM [inhibitor, single point]
COc1ccc(OC)c(/C=C/C(=O)NC2=NCCS2)c1 | inconclusive: 10.4 µM [inhibitor, single point]
O=C(O)C1CCN(C(=O)CSc2nc3ccccc3s2)CC1 | inactive
O=C(CCCCl)NC(=S)Nc1ccc(CN2CCOCC2)cc1 | inconclusive: 11.7 µM [inhibitor, single point]
CCOC(=O)C1[C@H]2C(=O)N(C(C)c3ccc(OC)cc3)C[C@]23C=C[C@H]1O3 (some centres undefined) | inconclusive: 10.4 µM [inhibitor, partial curve]
COc1ccc(OC)c(NC(=O)c2ccc(CN(c3cc(Cl)ccc3C)S(=O)(=O)c3ccccc3)cc2)c1 | inconclusive: 2.62 µM [inhibitor, single point]
COc1ccc(C2Nc3ccccc3C(=O)N2NS(C)(=O)=O)c(OC)c1 (centres undefined) | inconclusive: 4.15 µM [inhibitor, single point]
COc1cc(NC(=O)c2ccc(C)cc2C)ccc1NC(=O)c1cc2ccccc2o1 | inconclusive: 10.4 µM [inhibitor, partial curve, poor fit]
O=C(COc1c(Br)cc(Br)c2cccnc12)N1CCCCC1 | inactive
CCCCN(C(=O)c1ccc(N2C(=O)c3ccccc3C2=O)cc1)c1c(N)n(CC(C)C)c(=O)[nH]c1=O | inactive
CCCN(C(=O)COC(=O)Cn1c(=O)oc2ccccc21)c1c(N)n(Cc2ccccc2)c(=O)[nH]c1=O | inactive
CCOC(=O)Cn1nc(-c2ccccc2)c2cnc3ccc(C)cc3c21 | inconclusive: 18.5 µM [inhibitor, single point]
COc1ccc(S(=O)(=O)N(CC(=O)NCc2ccncc2)Cc2ccccc2)cc1 | active: 5.22 µM
FC(F)(F)c1ccc(Cl)c(N/N=C/c2ccc(N3CCOCC3)s2)c1 | active: 7.38 µM
CCSc1nc(N2CCCCC2)c2c(c1C#N)CCCC2 | inconclusive: 0.0208 µM [inhibitor, full curve, poor fit]
CN(C)CCCN(C(=O)c1ccc2c(c1)CCCC2)c1nc2ccc(Cl)cc2s1 | active: 1.85 µM
CCOC(=O)Cc1csc(NC(=O)COc2ccccc2OCC)n1 | inconclusive: 0.0828 µM [inhibitor, full curve, poor fit]
CCOc1ccc(CCNC(=O)c2cc(C)nn2-c2ccccc2)cc1 | inactive
CCC(CC)NCC(O)COc1ccc(Br)cc1 (centres undefined) | active: 7.38 µM
COC(=O)c1ccccc1C(=O)N1CCCC(C(=O)c2cc(F)ccc2F)C1 (centres undefined) | inconclusive: 0.0738 µM [inhibitor, full curve, poor fit]
O=C(OCCN=C1NS(=O)(=O)c2ccccc21)c1ccccc1 | inconclusive: 11.7 µM [inhibitor, partial curve, poor fit]

SMILES | Potency
COc1ccc(/C=N/NC(=S)Nc2ccccc2)cc1COc1ccccc1F | inconclusive: 18.5 µM [inhibitor, single point]
CCOC(=O)c1c(CC(C)C)csc1NC(=O)CCl | inactive
O=C(CSc1nnc(-c2cccnc2)n1Cc1ccccc1)N1CCOCC1 | active: 1.85 µM
Cc1ccccc1-n1ncc(C(C)NS(=O)(=O)c2ccccc2Cl)c1C (centres undefined) | inactive
Cc1ccc(C(=O)OC(C(=O)O)C(OC(=O)c2ccc(C)cc2)C(=O)O)cc1 (centres undefined) | inactive
O=C(c1ccc2c(c1)C(=O)N(Cc1ccco1)C2O)N1CCOCC1 (centres undefined) | inconclusive: 18.5 µM [inhibitor, single point]
Cc1nn(CCc2nn[nH]n2)c2nc(-c3ccccc3)cc(C(F)(F)F)c12 | inactive
Cc1ccc(CSc2nnc(CS(=O)Cc3ccc(Cl)cc3Cl)n2C)cc1 (centres undefined) | inconclusive: 13.1 µM [inhibitor, single point]
Cn1c(-c2cnn(-c3ccccc3)c2-n2cccc2)n[nH]c1=S | inconclusive: 1.04 µM [inhibitor, partial curve]
COc1cc2c(C#N)c(N3CCCC3)nc(N)c2c(N)n1 | inconclusive: 2.94 µM [inhibitor, partial curve]
CC(=O)c1cccc(NC(=O)c2csc(-n3nc(C)cc3C(F)(F)F)n2)c1 | inconclusive: 11.7 µM [inhibitor, single point]
Cc1nnc(SCc2cccc3ccccc23)n(N)c1=O | inconclusive: 18.5 µM [inhibitor, single point]
CC1(C)OC(=O)C(=Cc2ccc(-c3ccc(Cl)c(C(=O)O)c3)o2)C(=O)O1 | inconclusive: 18.5 µM [inhibitor, single point]
Cc1ccnc(NC(=O)C2CCN(S(=O)(=O)c3ccc(C)c(C)c3)CC2)c1 | inactive
Cc1ncsc1CCC(=O)N1CCCC(Nc2ccc(C(C)C)cc2)C1 (centres undefined) | inconclusive: 0.586 µM [inhibitor, full curve, poor fit]
Cc1[nH][nH]c(=O)c1C(c1ccc(O)c([N+](=O)[O-])c1)c1c(C)[nH][nH]c1=O | inconclusive: 10.4 µM [inhibitor, partial curve, poor fit]
Oc1ccc(N2CCN(Cc3nc4ccccc4[nH]3)CC2)cc1 | inconclusive: 11.7 µM [inhibitor, single point]
COCCn1cnnc1SCC(=O)Nc1cccc(S(=O)(=O)N2CCCCCC2)c1 | inconclusive: 11.7 µM [inhibitor, single point]
COc1ccc(OC)c(NC(=O)CSc2nc3ccccc3cc2Cc2ccccc2)c1 | active: 6.57 µM
CCOC(=O)CC1=NC(=O)CS1 | inconclusive: 11.7 µM [inhibitor, single point]
CC1CCN(C(=O)Cn2c(=O)n(CCCC(=O)NCc3ccco3)c(=O)c3sccc32)CC1 | inconclusive: 10.4 µM [inhibitor, single point]
S=C(NCc1ccco1)NC1CCCc2ccccc21 (centres undefined) | inconclusive: 9.28 µM [inhibitor, partial curve, poor fit]
CC(C)C(C(=O)Nc1ccncc1)c1ccc(Cl)cc1 (centres undefined) | active: 1.47 µM

SMILES | Potency
CN(CCO)CC(O)Cn1cnc2c1c(=O)n(C)c(=O)n2C (centres undefined) (tested in a mixture with another compound) | inconclusive: 15.1 µM [inhibitor, single point] and inconclusive: 14.7 µM [inhibitor, single point]
CS(=O)(=O)c1ccc(Cl)c(C(=O)O)c1 | active: 3.7 µM
Cc1cc(C)nc(Nc2ncc(O)n2-c2ccccc2)n1 | inconclusive: 0.0928 µM [inhibitor, full curve, poor fit]
CCc1cccc(NC(=O)CCCn2nc(CC)n3c(cc4occc43)c2=O)c1 | active: 11.7 µM
C=C(C)CNC(=S)N/N=C/c1ccc(N2CCOCC2)cc1 | inconclusive: 18.5 µM [inhibitor, single point]
O=C(Nc1ccccc1)c1ccc2c(c1)OCCCO2 | inactive
O=C(N/N=C/c1c[nH]c2ccccc12)c1ccn(Cc2ccc(Cl)cc2)n1 | inconclusive: 0.586 µM [inhibitor, full curve, poor fit]
O=c1cc(N=Nc2ccc(Cl)cc2)[nH]c(=O)[nH]1 | inconclusive: 5.86 µM [inhibitor, partial curve, poor fit]
Cc1ccc(S(=O)(=O)Nc2nc3n(n2)C(c2ccc(Cl)cc2)CC(=O)N3)cc1 (centres undefined) | inactive
COc1ccccc1CNC(=O)c1cc(C(C)C)nc2ccccc12 | inconclusive: 14.7 µM [inhibitor, partial curve, poor fit]
Cc1ccc(-n2ncc3c(SCc4cccnc4)ncnc32)c(C)c1 | inconclusive: 18.5 µM [inhibitor, single point]
CNC(=O)NC(=O)C(c1ccccc1)N(C)CC1COc2ccccc2O1 (centres undefined) | inconclusive: 10.4 µM [inhibitor, single point]
CN(C)S(=O)(=O)N1CCN(c2ccc([N+](=O)[O-])c(NC3CC3)c2)CC1 | inconclusive: 9.28 µM [inhibitor, partial curve]
CCOC(=O)c1[nH]c(C)c(C(=O)N2CCN(c3cccc(Cl)c3)CC2)c1C | inactive
Cc1cc(NC(=O)c2cc(-c3ccccc3Cl)nc3ccccc23)no1 | inconclusive: 13.1 µM [inhibitor, single point]
O=C(CCc1ccc(S(=O)(=O)NC2CCCCC2)cc1)NCc1cccnc1 | inactive
CSc1ccc(/C=C(\C(=O)O)c2ccc(S(=O)(=O)N3CCCC3)s2)cc1 | inconclusive: 18.5 µM [inhibitor, single point]
CC1=NN(c2ccccc2)C(=O)C1N=Nc1ccc(S(N)(=O)=O)cc1 (centres undefined) | inactive
CC1=C(C(=O)OCC2CCCO2)C(c2ccccc2Cl)NC(=O)N1 (centres undefined) | inactive
O=C(N/N=C/c1ccc(F)cc1)c1ccc(OCc2ccccc2)cc1 | inactive
O=C(/C=C/c1ccc(Cl)c(Cl)c1)N1CCOCC1 | inconclusive: 5.22 µM [inhibitor, partial curve]
Fc1cccc(CCN2CCNC[C@H]2Cc2cccc3ccccc23)c1 | inconclusive: 4.15 µM [inhibitor, single point]
Cc1ccc(N(CC(=O)NCCSCc2ccco2)S(=O)(=O)c2ccc(C)cc2)cc1 | active: 6.57 µM
